Values of other authors as cited in patent US5091409A (priority 1990, dated 1992).
At least one compound was matched to its structure with a doubt left.

System: intraocular pressure
Conditions: background statement, cited from earlier work
[1] = advantage over many other β-adrenergic blocking agents

CC(C)(C)NC[C@H](O)COc1nsnc1N1CCOCC1 [(S)-1-tert-Butylamino[(4-morpholino-1,2,5-thiadiazol-3-yl)oxy]-2-propanol]
duration of activity [1]: long duration of activity | tolerance [1]: minimal tolerance | effect on intraocular pressure: reduce intraocular pressure
